Assay results reported in article doi:10.1101/2023.06.14.544976.
No constants are given. Whether binding was seen depends on the method and setting. Binding seen in cells or lysates may run through a third protein. These calls come from enrichment with a bait or labelling near it, and not all partners need be listed.

Target: SBP-FLAG tagged RAVER1 wild-type protein
Assay: affinity purification with mass spectrometry

binding: binds
B1: SRSF2 (protein, UniProt Q01130 1-221)
chain: MSYGRPPPDVEGMTSLKVDNLTYRTSPDTLRRVFEKYGRVGDVYIPRDRYTKESRGFAFVRFHDKRDAEDAMDAMDGAVLDGRELRVQMARYGRPPDSHHSRRGPPPRRYGGGGYGRRSRSPRRRRRSRSRSRSRSRSRSRSRYSRSKSRSRTRSRSRSTSKSRSARRSKSKSSSVSRSRSRSRSRSRSRSPPPVSKRESKSRSRSKSPPKSPEEEGAVSS
